{"source": "patent US8835485B2", "about": "“Prevention and treatment of sarcopenia” (PsiOxus Therapeutics Limited, priority 2009, dated 2014)", "key": {"[1]": {"tested_on": "Old, healthy, male Wistar Han rats", "assay": "S-Pindolol in old (19 month) rats, 28 days: body weight, lean mass, organ weights", "type": "in vivo, rat", "details": "3 mg/kg/d", "procedure": "Old, healthy, male Wistar Han rats (age 19 month, at the start of the experiment) were housed in groups of two to three per cage under standard laboratory conditions. Animals were randomized to receive either 3 mg/kg/d S-Pindolol/kg/d (n=8), or placebo (n=14) once daily per gavage for 28 days. Body composition (lean mass) of the animals was analyzed using the EchoMRI-700 system (Echo Medical Systems, Houston, Tex., USA) before treatment, once per week during the study and at the end of the study. Body weight was recorded before treatment, once per week during the study and at the end of study. Organ weights were recorded at the end of study. One tibialis muscle per animals was dried at 60° C. for 48 h."}, "[2]": {"tested_on": "Young, healthy, male Wistar Han rats", "assay": "S-Pindolol in young healthy rats, 16 days: body weight, lean mass, organ weights", "type": "in vivo, rat", "details": "gavage; for Spleen organ weight at the end of the study: placebo 639 ± 19; for Liver organ weight at the end of the study: placebo 10454 ± 287", "procedure": "Young, healthy, male Wistar Han rats (201.8±2.4 g) were housed in groups of two to three per cage under standard conditions. Animals were randomized to receive either 0.3 mg S-Pindolol/kg/d (n=5), 3 mg S-Pindolol/kg/d (n=5) or placebo (n=16) once daily per gavage for 16 days. Body composition (lean mass) of the animals was analyzed using the EchoMRI-700 system (Echo Medical Systems, Houston, Tex., USA) before treatment and at the end of the study. Body weight was recorded before treatment and at the end of study. Organ weights were recorded at the end of study."}}, "data": [{"smiles": "CC(C)NC[C@H](O)COc1cccc2[nH]ccc12", "note": "[S-Pindolol, S-(−)-1-(1H-indol-4-yloxy)-3-(1-methylethylamino)propan-2-ol]", "values": [{"measurement": "Liver organ weight at the end of the study", "setting": "[1]; placebo 13.68 ± 0.74", "result": "13.98 ± 0.76", "unit": "g"}, {"measurement": "Spleen organ weight at the end of the study", "setting": "[1]; placebo 924 ± 46", "result": "1045 ± 84", "unit": "mg"}, {"measurement": "Spleen organ weight at the end of the study", "setting": "[2]; 0.3 mg/kg/d", "result": "634 ± 14", "unit": "mg"}, {"measurement": "Liver organ weight at the end of the study", "setting": "[2]; 0.3 mg/kg/d", "result": "10156 ± 265", "unit": "mg"}, {"measurement": "Spleen organ weight at the end of the study", "setting": "[2]; 3 mg/kg/d", "result": "622 ± 37", "unit": "mg"}, {"measurement": "Liver organ weight at the end of the study", "setting": "[2]; 3 mg/kg/d", "result": "10568 ± 410", "unit": "mg"}]}]}
